# Reference: patent US9205064B2, “Methods for the diagnosis of oncological disorders using epimetabolic shifters, multidimensional intracellular molecules, or environmental influencers” (Berg LLC, priority 2009, dated 2015)
# Experiment: LC-MS/MS quantification of Q10 and Q10H2 in mitochondrial enriched samples
# Assay type: cell-based
structure (smiles),measurement,setting,value
"COC1=C(OC)C(=O)C(C/C=C(\C)CC/C=C(\C)CC/C=C(\C)CC/C=C(\C)CC/C=C(\C)CC/C=C(\C)CC/C=C(\C)CC/C=C(\C)CC/C=C(\C)CCC=C(C)C)=C(C)C1=O [Q10, Coenzyme Q10]",increase in mitochondrial Q10 levels,"100 μM Q10, 19 hours",−3 fold
same,increase in mitochondrial Q10 levels,"100 μM Q10, 48 hour",~6 fold
same,Q9 level in mitochondrial enriched sample,"6 hr Q10 treated, 100 μM",0.28 ng/Sample
same,Q10 level in mitochondrial enriched sample,"6 hr Q10 treated, 100 μM",7.21 ng/Sample
same,Q9 level in mitochondrial enriched sample,"19 hr Q10 treated, 100 μM",0.47 ng/Sample
same,Q10 level in mitochondrial enriched sample,"19 hr Q10 treated, 100 μM",16.27 ng/Sample
same,Q9 level in mitochondrial enriched sample,"48 hr Q10 treated, 100 μM",1.99 ng/Sample
same,Q10H2 level in mitochondrial enriched sample,"48 hr Q10 treated, 100 μM",0.28 ng/Sample
same,Q10 level in mitochondrial enriched sample,"48 hr Q10 treated, 100 μM",46.63 ng/Sample
same,general increase in the levels of Q10H2,Q10 treated 48 hour sample,3 fold
same,form of Q10 in the mitochondria,exogenous Q10 in the media,maintained in the supplied oxidized form
